# Results of single-concentration screens

Chains of the proteins cited; added tags and fusions are not shown. Residues count along the entry.
UniProt Q8IDJ8, 1-583: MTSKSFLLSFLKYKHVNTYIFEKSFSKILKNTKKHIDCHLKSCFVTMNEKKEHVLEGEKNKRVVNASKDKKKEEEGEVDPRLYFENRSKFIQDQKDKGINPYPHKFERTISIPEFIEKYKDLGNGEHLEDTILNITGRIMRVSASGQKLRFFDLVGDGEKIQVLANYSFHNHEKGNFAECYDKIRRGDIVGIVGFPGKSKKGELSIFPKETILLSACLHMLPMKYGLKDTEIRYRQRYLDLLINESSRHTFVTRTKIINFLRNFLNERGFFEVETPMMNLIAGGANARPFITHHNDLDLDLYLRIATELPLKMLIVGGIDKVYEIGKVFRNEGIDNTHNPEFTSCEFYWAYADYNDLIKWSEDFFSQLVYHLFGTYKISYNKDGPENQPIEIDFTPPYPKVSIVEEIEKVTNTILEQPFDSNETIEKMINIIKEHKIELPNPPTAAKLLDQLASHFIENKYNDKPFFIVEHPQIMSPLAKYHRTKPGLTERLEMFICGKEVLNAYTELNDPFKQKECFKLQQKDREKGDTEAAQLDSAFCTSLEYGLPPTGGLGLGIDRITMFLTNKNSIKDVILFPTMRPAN

A: 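Assay of Toxoplasma gondii numbers, read through their beta-galactosidase reporter with a colour substrate. Compounds at 10 µM. The record gives no direction; the compounds picked for IC50 retests had high values, so higher reads as fewer parasites. Of about 67,000 compounds tested this way, about 260 (0.38%) reached 50% or more in at least one test.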
B: 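Whole-parasite assay of Trypanosoma brucei over 72 hours; the read-out is not stated. Tested at 30 µM. Higher reads as stronger inhibition (inferred: compounds with an IC50 in retests scored well above the rest). Values scatter widely below zero; nearly all retest evidence comes from the higher of the two concentrations used. Size under these conditions: about 64,000 compounds, about 940 of them at 50% or above in at least one test.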
C: 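Cell assay of Leishmania donovani living inside macrophages; the read-out is not stated. Compounds at 30 µM. The record gives no direction; compounds that gave an IC50 in retests scored well above the rest, so higher reads as stronger inhibition. Of about 69,000 compounds tested this way, about 1,000 (1.5%) reached 50% or more in at least one test.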
D: 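Enzyme assay of the cytosolic lysyl-tRNA synthetase in 384-well plates, read by luminescence. Target: Lysine-tRNA ligase, Plasmodium falciparum 3D7 (UniProt Q8IDJ8). Concentration: 30 µM. Direction is inferred from only a few compounds that gave an IC50; most scored high, so higher reads as stronger inhibition. Of about 69,000 compounds tested this way, about 49 (0.071%) reached 50% or more in at least one test.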

The filed quantity is “Percent Effect” (%).
The controls that fix the scale are not given in the record; negative values are as filed.
Compounds were drawn at random from those tested, without regard to their results.
Two or more numbers in one place are separate tests of the same structure; such repeats can differ widely.
A dash means the value is not listed here; it may have been measured.

structure,A,B,C,D
COCc1cccc(C(=O)N2CCCC2)c1,-4.588,-17.8,12.66,2.338
Cc1nnnn1-c1cc(NCc2cccc(C#N)c2)ccc1F,5.988,-17.46,-29.24,3.17
CC(C)c1nn(C)c(Cl)c1CNCC(O)c1cccc(F)c1 (centres undefined),-,-,-,7.116
O=C(O)C(F)(F)F.[H][C@@]12CCCO[C@]1([H])[C@H](OCc1cccnc1)CN2S(=O)(=O)CC,-10.65,-32.46,-23,-
O=C(NCc1cc(N2CCOCC2)ncn1)c1cccc(CO)n1,-3.558,-27.79,-8.404,-1.972
CC(C)CCC(=O)NC(C)c1nnc2n1CCCCC2 (centres undefined),0.3337,4.231,3.419,-3.644
CNC(=O)C1CN(C(=O)c2cccs2)CCN(S(C)(=O)=O)C1 (centres undefined),2.913,-11.69,-6.755,1.344
O=C(c1cc(=O)[nH]c(=O)[nH]1)N1CCCCC1c1nc2cc(F)ccc2[nH]1 (centres undefined),-8.433,-7.741,18.29,-3.272
COCC1CC2(CCN(C(=O)c3ccc(C)nc3)CC2)CO1 (centres undefined),-,-,-,4.24
Cc1ncc(C(=O)N2CCCC(C(=O)c3nccn3C)C2)c(O)n1 (centres undefined),-0.2875,1.154,29.54,1.542
CC1C(=O)NCCN1CCOc1ccc(C#N)cc1 (centres undefined),2.933,-51.55,28.17,1.409
CN(CC1COc2ccccc2O1)C(=O)NCCCn1ccnc1 (centres undefined),-16.37,-50.37,4.326,-9.083
CC(C)N1CC(c2ccnc(Nc3nccs3)n2)C1,7.213,-17.12,-18.95,2.256
Cc1ncc(-c2ccnc(N3CC[C@H](O)C3)n2)c(-c2cccnc2)n1,-40.76,32.35,12.29 & 12.03,2.045
CNC(=O)c1cc2c(s1)CCN(C(=O)CCC1CCCN(C)C1)C2 (centres undefined),13.79,-83.46,11.87,0.8836
CN(C)C(=O)Cc1ccccc1NCc1noc(-c2ccccc2)n1,-8.69,-6.839,13.11,-2.769
Fc1cccnc1N1CCOCC2(CCCN(c3nncs3)C2)C1 (centres undefined),-,-,-,7.848
Cn1ncc2c(NCCn3cccc3)nc(C3CCCC3)nc21,-1.104,-43.52,-10.56,5.376
Cc1cc(CN2CCC3(CC2)CC(Nc2ncccn2)CO3)nn1C (centres undefined),-,-,-,-4.538
COC(=O)CC(c1cnn(C)c1)c1oc(C)cc(=O)c1O (centres undefined),-7.659,-22.72,-37.38,-4.029
FC(F)(F)Oc1ccc(-c2c[nH]c([C@@H]3COCCN3)n2)cc1,23.53,62.77,26.7,7.777
O=C(Cc1ccccc1Cl)NCCN1CCC(c2cccs2)CC1,15.57,-6.562,7.8,1.012
CC(C)(NCc1cccc(C#N)c1)c1ccc2c(c1)OCO2,2.144,-11.97,-5.077,0.3918
Cc1nccn1-c1nccnc1C1CCCN(C2CCCC2)C1 (centres undefined),18.62,-13.68,-18.75,-1.641
CC(C)OCCC(=O)N(C)CCCc1cc(-c2ccccc2)no1,-0.5385,-21.25,-17.06,-10.06
CC(C)c1noc(C(C)N2CCC(c3nc4ccccc4[nH]3)CC2)n1 (centres undefined),-6.845,-3.896,18.99,2.365
CCN1C[C@H]2C[C@H](C(=O)NCc3cccnc3)[C@@H](C1)O2,-,-,-,-2.107
Cc1nnc(N2CCN(C)C3(CCC(=O)N(CCO)CC3)C2)s1 (centres undefined),9.862,-22.56,3.677,2.989
Cc1nc(CC(=O)N2CCCC(N(C)Cc3ccccc3)C2)cs1 (centres undefined),17.15,-32.82,-11.11,-2.907
Fc1cnc(N2CCOC3(CCN(Cc4ccsc4)CC3)C2)nc1.O=C(O)C(F)(F)F.O=C(O)C(F)(F)F,0.2161,-33.06,16.14,-
CC(C)(C#N)C(=O)N1CCCC(c2cc(C(F)(F)F)[nH]n2)C1 (centres undefined),9.801,39.95,16.94,-3.338
CC(C)c1noc(CCC(=O)NCC(c2ccco2)N2CCCC2)n1 (centres undefined),-15.5,-32.18,8.506,1.139
Cc1ccc(CNC(=O)CNCC2CCN(CCO)CC2)s1,-14.89,3.128,12.94,0.6559
CC(C)(C)NC(=O)CNc1ccc(Br)cn1,-10.41,-95.34,9.439,7.021
Cc1ccc(N2CCCC(N(C)Cc3noc(C4CC4)n3)C2)nn1 (centres undefined),-,-15.99,35.61,0.9554
Cn1ccnc1CN1CCC2(CC1)CN(Cc1ccccc1)C(=O)CO2,-,-,-,2.815
COc1ncccc1C(=O)NCC1Cc2ccccc2O1 (centres undefined),7.991,-148.8,9.128,8.983
c1nc2n(c1CN1CCCC1)CCN(C1CCOCC1)CC2,-4.294,51.58,-0.02802,4.14
Cc1cnc(N2CCN(C(C)C(N)=O)CC2)nc1 (centres undefined),2.869,-0.7043,6.025,0.3802
CC(C)OCCCN(Cc1cnn(C)c1)Cc1ccccn1.O=C(O)CC(O)(CC(=O)O)C(=O)O,1.773,-1.173,-1.681,-
Cc1cc(CN2CCC3(CC2)COC(COc2ccccn2)C3)no1 (centres undefined),96.36,-7.557,-1.991,-0.4964
N#Cc1cccc(C(=O)Nc2ccc([C@@H](O)[C@H]3COCC(=O)N3)cc2)c1,-,-,-,5.325
CN(C)c1nc(NCc2cccnc2N)ncc1F,4.365,-2.304,6.197,0.3684
CC(C)N(C)[C@@H]1CCN(Cc2ccoc2)[C@H]1Cc1ccccc1,2.427,-25.91,23.14,3.256

The first 4 entries again:

structure	A	B	C	D
COCc1cccc(C(=O)N2CCCC2)c1	-4.588	-17.8	12.66	2.338
Cc1nnnn1-c1cc(NCc2cccc(C#N)c2)ccc1F	5.988	-17.46	-29.24	3.17
CC(C)c1nn(C)c(Cl)c1CNCC(O)c1cccc(F)c1 (centres undefined)	-	-	-	7.116
O=C(O)C(F)(F)F.[H][C@@]12CCCO[C@]1([H])[C@H](OCc1cccnc1)CN2S(=O)(=O)CC	-10.65	-32.46	-23	-

From ChEMBL document CHEMBL3988442, “University of Dundee, Small-Polar-MMV Screening Library” (2021).